{
  "source": "the supplement of paper PMC8728848",
  "assay_in_all_cases": "glycan array binding signal (z-score within array); higher = stronger binding",
  "conditions_in_all_cases": "glycan notation: IUPAC condensed, linker removed",
  "key": {"[1]": {"target": "Gal(b1-4)GlcNAc(b1-2)[Gal(b1-4)GlcNAc(b1-6)]Man(a1-6)[GlcNAc(b1-4)][Gal(b1-4)GlcNAc(b1-2)Man(a1-3)]Man(b1-4)GlcNAc(b1-4)GlcNAc", "procedure,_shortened": "(§1)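 The binding signal is a Z-score computed within each array. Data were drawn from 3228 arrays in the Consortium for Functional Glycomics database, restricted to those with a known protein sequence. Scores were averaged over arrays of the same protein sequence at different concentrations or buffers, and over linkers, and negative values can be taken as non-binding.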"}, "[2]": {"target": "Gal(b1-4)GlcNAc(b1-2)[Gal(b1-4)GlcNAc(b1-6)]Man(a1-6)[GlcNAc(b1-4)][Gal(b1-4)GlcNAc(b1-2)[Gal(b1-4)GlcNAc(b1-4)]Man(a1-3)]Man(b1-4)GlcNAc(b1-4)[Fuc(a1-6)]GlcNAc", "procedure,_shortened": "as §1"}, "[3]": {"target": "Gal(b1-4)GlcNAc(b1-3)Gal(b1-3)GalNAc", "procedure,_shortened": "as §1"}, "[4]": {"target": "Gal(b1-4)GlcNAc(b1-3)Gal(b1-3)GlcNAc", "procedure,_shortened": "as §1"}, "[5]": {"target": "Gal(b1-4)GlcNAc(b1-3)Gal(b1-4)Glc", "procedure,_shortened": "as §1"}, "[6]": {"target": "Gal(b1-4)GlcNAc(b1-3)Gal(b1-4)GlcNAc", "procedure,_shortened": "as §1"}, "[7]": {"target": "Gal(b1-4)GlcNAc(b1-3)Gal(b1-4)GlcNAc(b1-2)Man(a1-3)[Gal(b1-4)GlcNAc(b1-3)Gal(b1-4)GlcNAc(b1-2)Man(a1-6)]Man(b1-4)GlcNAc(b1-4)GlcNAc", "procedure,_shortened": "as §1"}, "[8]": {"target": "Gal(b1-4)GlcNAc(b1-3)Gal(b1-4)GlcNAc(b1-2)Man(a1-3)[Gal(b1-4)GlcNAc(b1-3)Gal(b1-4)GlcNAc(b1-2)Man(a1-6)]Man(b1-4)GlcNAc(b1-4)[Fuc(a1-6)]GlcNAc", "procedure,_shortened": "as §1"}, "[9]": {"target": "Gal(b1-4)GlcNAc(b1-3)Gal(b1-4)GlcNAc(b1-2)[Gal(b1-4)GlcNAc(b1-3)Gal(b1-4)GlcNAc(b1-6)]Man(a1-6)[Gal(b1-4)GlcNAc(b1-3)Gal(b1-4)GlcNAc(b1-2)Man(a1-3)]Man(b1-4)GlcNAc(b1-4)GlcNAc", "procedure,_shortened": "as §1"}, "[10]": {"target": "Gal(b1-4)GlcNAc(b1-3)Gal(b1-4)GlcNAc(b1-2)[Gal(b1-4)GlcNAc(b1-3)Gal(b1-4)GlcNAc(b1-6)]Man(a1-6)[Gal(b1-4)GlcNAc(b1-3)Gal(b1-4)GlcNAc(b1-2)Man(a1-3)]Man(b1-4)GlcNAc(b1-4)[Fuc(a1-6)]GlcNAc", "procedure,_shortened": "as §1"}, "[11]": {"target": "Gal(b1-4)GlcNAc(b1-3)Gal(b1-4)GlcNAc(b1-3)Gal(b1-4)GlcNAc", "procedure,_shortened": "as §1"}, "[12]": {"target": "Gal(b1-4)GlcNAc(b1-3)Gal(b1-4)GlcNAc(b1-3)Gal(b1-4)GlcNAc(b1-2)Man(a1-3)[Gal(b1-4)GlcNAc(b1-3)Gal(b1-4)GlcNAc(b1-3)Gal(b1-4)GlcNAc(b1-2)Man(a1-6)]Man(b1-4)GlcNAc(b1-4)GlcNAc", "procedure,_shortened": "as §1"}, "[13]": {"target": "Gal(b1-4)GlcNAc(b1-3)Gal(b1-4)GlcNAc(b1-3)Gal(b1-4)GlcNAc(b1-2)Man(a1-3)[Gal(b1-4)GlcNAc(b1-3)Gal(b1-4)GlcNAc(b1-3)Gal(b1-4)GlcNAc(b1-2)Man(a1-6)]Man(b1-4)GlcNAc(b1-4)[Fuc(a1-6)]GlcNAc", "procedure,_shortened": "as §1"}, "[14]": {"target": "Gal(b1-4)GlcNAc(b1-3)Gal(b1-4)GlcNAc(b1-3)Gal(b1-4)GlcNAc(b1-2)[Gal(b1-4)GlcNAc(b1-3)Gal(b1-4)GlcNAc(b1-3)Gal(b1-4)GlcNAc(b1-6)]Man(a1-6)[Gal(b1-4)GlcNAc(b1-3)Gal(b1-4)GlcNAc(b1-3)Gal(b1-4)GlcNAc(b1-2)Man(a1-3)]Man(b1-4)GlcNAc(b1-4)[Fuc(a1-6)]GlcNAc", "procedure,_shortened": "as §1"}, "[15]": {"target": "Gal(b1-4)GlcNAc(b1-3)Gal(b1-4)GlcNAc(b1-3)Gal(b1-4)GlcNAc(b1-3)Gal(b1-4)GlcNAc(b1-2)Man(a1-3)[Gal(b1-4)GlcNAc(b1-3)Gal(b1-4)GlcNAc(b1-3)Gal(b1-4)GlcNAc(b1-3)Gal(b1-4)GlcNAc(b1-2)Man(a1-6)]Man(b1-4)GlcNAc(b1-4)GlcNAc", "procedure,_shortened": "as §1"}, "[16]": {"target": "Gal(b1-4)GlcNAc(b1-3)Gal(b1-4)GlcNAc(b1-3)Gal(b1-4)GlcNAc(b1-3)Gal(b1-4)GlcNAc(b1-2)Man(a1-3)[Gal(b1-4)GlcNAc(b1-3)Gal(b1-4)GlcNAc(b1-3)Gal(b1-4)GlcNAc(b1-3)Gal(b1-4)GlcNAc(b1-2)Man(a1-6)]Man(b1-4)GlcNAc(b1-4)[Fuc(a1-6)]GlcNAc", "procedure,_shortened": "as §1"}, "[17]": {"target": "Gal(b1-4)GlcNAc(b1-3)Gal(b1-4)GlcNAc(b1-3)Gal(b1-4)GlcNAc(b1-3)Gal(b1-4)GlcNAc(b1-2)[Gal(b1-4)GlcNAc(b1-3)Gal(b1-4)GlcNAc(b1-3)Gal(b1-4)GlcNAc(b1-3)Gal(b1-4)GlcNAc(b1-6)]Man(a1-6)[Gal(b1-4)GlcNAc(b1-3)Gal(b1-4)GlcNAc(b1-3)Gal(b1-4)GlcNAc(b1-3)Gal(b1-4)GlcNAc(b1-2)Man(a1-3)]Man(b1-4)GlcNAc(b1-4)[Fuc(a1-6)]GlcNAc", "procedure,_shortened": "as §1"}, "[18]": {"target": "Gal(b1-4)GlcNAc(b1-3)Gal(b1-4)GlcNAc(b1-3)Gal(b1-4)GlcNAc(b1-3)Gal(b1-4)GlcNAc(b1-3)Gal(b1-4)GlcNAc(b1-2)Man(a1-3)[Gal(b1-4)GlcNAc(b1-3)Gal(b1-4)GlcNAc(b1-3)Gal(b1-4)GlcNAc(b1-3)Gal(b1-4)GlcNAc(b1-3)Gal(b1-4)GlcNAc(b1-2)Man(a1-6)]Man(b1-4)GlcNAc(b1-4)GlcNAc", "procedure,_shortened": "as §1"}, "[19]": {"target": "Gal(b1-4)GlcNAc(b1-3)Gal(b1-4)GlcNAc(b1-3)Gal(b1-4)GlcNAc(b1-3)Gal(b1-4)GlcNAc(b1-3)Gal(b1-4)GlcNAc(b1-2)Man(a1-3)[Gal(b1-4)GlcNAc(b1-3)Gal(b1-4)GlcNAc(b1-3)Gal(b1-4)GlcNAc(b1-3)Gal(b1-4)GlcNAc(b1-3)Gal(b1-4)GlcNAc(b1-2)Man(a1-6)]Man(b1-4)GlcNAc(b1-4)[Fuc(a1-6)]GlcNAc", "procedure,_shortened": "as §1"}, "[20]": {"target": "Gal(b1-4)GlcNAc(b1-3)Gal(b1-4)GlcNAc(b1-3)Gal(b1-4)GlcNAc(b1-3)Gal(b1-4)GlcNAc(b1-3)Gal(b1-4)GlcNAc(b1-2)[Gal(b1-4)GlcNAc(b1-3)Gal(b1-4)GlcNAc(b1-3)Gal(b1-4)GlcNAc(b1-3)Gal(b1-4)GlcNAc(b1-3)Gal(b1-4)GlcNAc(b1-6)]Man(a1-6)[Gal(b1-4)GlcNAc(b1-3)Gal(b1-4)GlcNAc(b1-3)Gal(b1-4)GlcNAc(b1-3)Gal(b1-4)GlcNAc(b1-3)Gal(b1-4)GlcNAc(b1-2)Man(a1-3)]Man(b1-4)GlcNAc(b1-4)[Fuc(a1-6)]GlcNAc", "procedure,_shortened": "as §1"}, "[21]": {"target": "Gal(b1-4)GlcNAc(b1-3)Gal(b1-4)GlcNAc(b1-3)Gal(b1-4)GlcNAc(b1-3)Gal(b1-4)GlcNAc(b1-3)Gal(b1-4)GlcNAc(b1-3)Gal(b1-4)GlcNAc(b1-2)Man(a1-3)[Gal(b1-4)GlcNAc(b1-3)Gal(b1-4)GlcNAc(b1-3)Gal(b1-4)GlcNAc(b1-3)Gal(b1-4)GlcNAc(b1-3)Gal(b1-4)GlcNAc(b1-3)Gal(b1-4)GlcNAc(b1-2)Man(a1-6)]Man(b1-4)GlcNAc(b1-4)GlcNAc", "procedure,_shortened": "as §1"}, "[22]": {"target": "Gal(b1-4)GlcNAc(b1-3)Gal(b1-4)GlcNAc(b1-3)GalNAc", "procedure,_shortened": "as §1"}, "[23]": {"target": "Gal(b1-4)GlcNAc(b1-3)Gal(b1-4)GlcNAc(b1-3)[Gal(b1-4)GlcNAc(b1-3)Gal(b1-4)GlcNAc(b1-6)]GalNAc", "procedure,_shortened": "as §1"}},
  "note": "This is one part of the list.",
  "data": [
    {"binder": "Aap lectin (Staphylococcus epidermidis) (protein) VNLNYSSPFMSLLSMPADSSSNNTKNTIDIPPTTVKGRDNYDFYGRVDIESNPTDLNATNLTRYNYGQPPGTTTAGAVQFKNQVSFDKDFDFNIRVANNRQSNTTGADGWGFMFSKKDGDDFLKNGGILREKGTPSAAGFRIDTGYYNNDPLDKIQKQAGQGYRGYGTFVKNDSQGNTSKVGSGTPSTDFLNYADNTTNDLDGKFHGQKLNNVNLKYNASNQTFTATYAGKTWTATLSELGLSPTDSYNFLVTSS", "values": [
      {"measurement": "glycan array binding signal (z-score)", "setting": "[1]", "result": -0.475},
      {"measurement": "glycan array binding signal (z-score)", "setting": "[2]", "result": -0.641},
      {"measurement": "glycan array binding signal (z-score)", "setting": "[3]", "result": 0.095},
      {"measurement": "glycan array binding signal (z-score)", "setting": "[4]", "result": 0.268},
      {"measurement": "glycan array binding signal (z-score)", "setting": "[5]", "result": 0.463},
      {"measurement": "glycan array binding signal (z-score)", "setting": "[6]", "result": -0.845},
      {"measurement": "glycan array binding signal (z-score)", "setting": "[7]", "result": 0.31},
      {"measurement": "glycan array binding signal (z-score)", "setting": "[8]", "result": 0.856},
      {"measurement": "glycan array binding signal (z-score)", "setting": "[9]", "result": -0.781},
      {"measurement": "glycan array binding signal (z-score)", "setting": "[10]", "result": 2.32},
      {"measurement": "glycan array binding signal (z-score)", "setting": "[11]", "result": -0.533},
      {"measurement": "glycan array binding signal (z-score)", "setting": "[12]", "result": 1.26},
      {"measurement": "glycan array binding signal (z-score)", "setting": "[13]", "result": 2.92},
      {"measurement": "glycan array binding signal (z-score)", "setting": "[14]", "result": 1.63},
      {"measurement": "glycan array binding signal (z-score)", "setting": "[15]", "result": 2.16},
      {"measurement": "glycan array binding signal (z-score)", "setting": "[16]", "result": 0.453},
      {"measurement": "glycan array binding signal (z-score)", "setting": "[17]", "result": 0.345},
      {"measurement": "glycan array binding signal (z-score)", "setting": "[18]", "result": 1.14},
      {"measurement": "glycan array binding signal (z-score)", "setting": "[19]", "result": 0.727},
      {"measurement": "glycan array binding signal (z-score)", "setting": "[20]", "result": -0.104},
      {"measurement": "glycan array binding signal (z-score)", "setting": "[21]", "result": 1.53},
      {"measurement": "glycan array binding signal (z-score)", "setting": "[22]", "result": 0.776},
      {"measurement": "glycan array binding signal (z-score)", "setting": "[23]", "result": 2.7}
    ]}
  ]
}
